Laboratory results published in PubChem BioAssay AID2685 (National Center for Advancing Translational Sciences (NCATS), 2010).
Where “and” joins values, the source holds several entries; their conditions need not be identical. Identical values can stand only once. The list shows a part of the results. Shown are side measurements of this screen, not its main read-out; they come without a call. The list favours compounds with an active or inconclusive main result. The note in brackets gives the kind of curve behind each potency; many fits are weak.

Experiment: qHTS Assay for Lipid Storage Modulators in Drosophila S3 Cells;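 as to cell number change: cells counted by Cell Tracker Red CMTPX staining in the red channel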
Settings: BODIPY lipid droplet fluorescence, 18-24 h; for cell number change: measured here: cell count max response, cells fed with added oleic acid
Procedure, shortened: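 Laser-scanning cytometry quantifies lipid droplet accumulation (500–530 nm total intensity; droplet/cell object ratio) in oleic acid-fed (400 uM added) Drosophila S3 cells treated with a concentration series. 20 uM Triacsin C defined 100% inhibition.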

[1] = measured here: cell number channel AC50, cells fed with added oleic acid
[2] = measured here: lipid fluorescence (Fed channel) AC50, cells fed with added oleic acid

COc1ccccc1/C=N/NC(=O)c1cc2c(OC)c(OC)ccc2[nH]1
cell number change: -41.4% | AC50 [1]: 32.6 µM [falling, single point]

N#C/C(=C/c1ccc(F)cc1)c1nc(CCN2C(=O)c3ccccc3C2=O)cs1
cell number change: 97.8% | AC50 [1]: 1.84 µM [rising, full curve] | AC50 [2]: 1.46 µM [rising, full curve]

CN(C)S(=O)(=O)c1cccc(NC(=O)CCc2nc3sc4c(c3c(=O)[nH]2)CCCC4)c1
cell number change: 3.24%

CC(=O)c1c(C)n(-c2ccccc2Br)c2ccc(O)cc12
cell number change: -1.41% | AC50 [1]: 0.461 µM [falling, single point]

CC(=O)Oc1ccc(C(=O)Nc2cc(NC(=O)c3ccc(OC(C)=O)cc3)cc(C(=O)NC(C)(C)C)c2)cc1
cell number change: 2.04% | AC50 [2]: 3.66 µM [rising, partial curve]

NC(=O)c1cc(C(N)=O)nc(Cl)n1
cell number change: 7.4% | AC50 [1]: 0.231 µM [falling, full curve]

CC(c1ccccc1)N1C(=O)OC(C)(C)C1(C)O (configuration not stated)
cell number change: 12.1%

CCN1C(=O)c2ccccc2Sc2ccc(C(=O)NCCCN3CCCCC3)cc21
cell number change: 4.75% | AC50 [2]: 11.6 µM [rising, partial curve, poor fit]

COc1ccc(C(=O)NCC(C)CN(C)C)cc1 (configuration not stated)
cell number change: 1.08% | AC50 [2]: 20.6 µM [falling, single point]

Fc1ccc(-c2nnc3sc(C4COc5ccccc5O4)nn23)cc1 (configuration not stated)
cell number change: -1.35%

Cc1ccc(NC(=O)COC(=O)Cn2c(C)csc2=O)cc1
cell number change: -4.7%

CCOc1ccc(C2C3=C(CCCC3=O)N(CC(=O)O)C3=C2C(=O)CCC3)cc1
cell number change: -30.7% | AC50 [1]: 32.6 µM [falling, partial curve, poor fit]

COc1ccc(-c2[nH]ncc2CN2CCC(O)(c3ccc(Cl)cc3)CC2)cc1
cell number change: 9.38%

Nc1c(C(=O)N/N=C/c2ccccc2)cnn1-c1ccccc1
cell number change: 5.94% | AC50 [2]: 0.259 µM [rising, partial curve, poor fit]

O=S(=O)(CCSc1ccc(C(F)(F)F)cn1)c1ccc(Cl)cc1
AC50 [1]: 0.0651 µM [falling, full curve, poor fit]

CC(C)c1nnc(NC(=O)CCc2ccccc2)s1
cell number change: 26.7%

CNC(=O)N/N=C(\N)c1ccccn1
cell number change: -47.7% | AC50 [1]: 7.31 µM [falling, partial curve, poor fit] | AC50 [2]: 2.91 µM [falling, partial curve]

O=C(CCC(=O)OCC(=O)c1ccc(Cl)cc1Cl)Nc1cccc2cccnc12
cell number change: 29.2%

CS(=O)(=O)c1ccc2nc(NC(=O)C3=NN(c4ccccc4)C(=O)CC3)sc2c1
cell number change: -13.5%

COc1cc(/C=N/NS(=O)(=O)c2ccc3ccccc3c2)ccc1OCCN1CCOCC1
cell number change: -2.08% | AC50 [2]: 29.1 µM [rising, single point]

O=C(NCc1cccnc1)c1cccn1-c1ncc(C(F)(F)F)cc1Cl
cell number change: -39.4% | AC50 [1]: 0.00461 µM [falling, full curve, poor fit] | AC50 [2]: 20.6 µM [falling, single point]

CC(=O)Nc1ccc(S(=O)(=O)N[C@@H](C)C(=O)N2CCN(C/C=C/c3ccccc3)CC2)cc1
cell number change: 8.41% | AC50 [2]: 0.00517 µM [falling, full curve, poor fit]

CN(C)/C=C1\Oc2ccc3ccccc3c2C1=O
cell number change: -30.8%

Cc1ccc(CCNC(=O)CN2C(=O)COc3ccc(S(=O)(=O)N4CCOCC4)cc32)cc1
cell number change: 11.5%

O=C(NCc1ccco1)NCC(F)(F)F
cell number change: -10.5% | AC50 [2]: 29.1 µM [rising, single point]

CN(C(=O)CCc1nnc(-c2ccc(-c3ccccc3)cc2)o1)C1CCOCC1
AC50 [2]: 18.4 µM [falling, single point]

O=S(=O)(c1ccc(F)cc1)N1CCN(C(=S)NC2CC2)CC1
cell number change: -38.7% | AC50 [1]: 0.00517 µM [falling, full curve, poor fit] | AC50 [2]: 0.461 µM [falling, full curve, poor fit]

COC(=O)C1=C(CSc2nc3ccccc3o2)NC(=O)NC1c1cc(C)ccc1C (configuration not stated)
cell number change: 6.81%

Cc1cc(C)n2nc(C(=O)OCC(=O)N(C)C3CCCCC3)nc2n1
cell number change: 11.9% | AC50 [2]: 5.8 µM [falling, single point]

O=C(/C=C/Sc1ccccc1)c1ccccc1
AC50 [1]: 5.17 µM [falling, single point] | AC50 [2]: 20.6 µM [falling, single point]

CCOc1ccc(-n2c(Cc3cc(=O)[nH]c(=O)[nH]3)nnc2SC(C)C)cc1
cell number change: -10.4% | AC50 [2]: 18.4 µM [falling, single point]

Cc1ccc(S(=O)(=O)CC(=O)NCc2ccccc2)cc1
cell number change: 17.8% | AC50 [2]: 29.1 µM [rising, single point]

Nc1cc(=O)[nH]c(=O)n1Cc1ccco1
cell number change: -1.02%

CCN(CC)c1ccc(NC(=O)COc2ccccc2C#N)cc1S(=O)(=O)Nc1ccc(OC)cc1
cell number change: 33.3% | AC50 [1]: 29.1 µM [rising, single point] | AC50 [2]: 0.103 µM [rising, full curve, poor fit]

COP(C)(=O)c1c(C)nn(-c2ccccc2)c1C (configuration not stated)
cell number change: -146%

Oc1ccc(CN2CCCc3ccccc32)c2cccnc12
AC50 [1]: 3.66 µM [falling, partial curve, poor fit] | AC50 [2]: 3.26 µM [falling, partial curve]

O=C(COc1ccccc1)N/N=C/c1ccc([N+](=O)[O-])o1
cell number change: -5.62% | AC50 [2]: 29.1 µM [falling, single point]

CN(CCO)Cc1csc2ccc(Br)cc12
cell number change: -26% | AC50 [2]: 29.1 µM [falling, single point]

CCOCCCNC(=O)C(c1ccc(C)cc1)N(Cc1cccs1)C(=O)c1ccccn1 (configuration not stated)
cell number change: -94.7% | AC50 [1]: 29.1 µM [falling, single point]

CCOC(=O)C1(Cc2cccc(OC)c2)CCCN(C(=O)c2ccccc2C)C1 (configuration not stated)
cell number change: 21.5%

N=c1ccn(Cc2ccc(Cl)cc2Cl)cc1
cell number change: 37.8%

CCCOc1ccc(C(F)(F)F)cc1NC(=O)c1cc(C)on1
cell number change: -8.84% | AC50 [1]: 5.17 µM [falling, partial curve] | AC50 [2]: 4.11 µM [falling, partial curve]

COc1ccc(C2=CC(=O)C[C@H](c3ccc4c(c3)OCO4)C2)cn1
cell number change: -7.34% | AC50 [2]: 0.291 µM [falling, partial curve, poor fit]

O=C(CC12CC3CC(CC(Br)(C3)C1)C2)NC1CCCC1
cell number change: -34.7% | AC50 [1]: 0.0231 µM [falling, full curve, poor fit]

CC(C)(C)n1nc2c(c1NC(=O)c1cccc(Cl)c1)CS(=O)(=O)C2
AC50 [2]: 6.51 µM [falling, single point]

CN(Cc1ccco1)C(=O)C1CCC(=O)N1Cc1ccc(F)cc1 (configuration not stated)
cell number change: 12.9%

CC(=O)c1cccc(NC(=O)CSc2nc(N3CCOCC3)nc(N3CCOCC3)n2)c1
cell number change: 6.19%

CN(C)S(=O)(=O)c1ccc(Cl)c(C(=O)NNC(=O)Cn2ccc(C(F)(F)F)n2)c1
cell number change: -15.7%

CC(C)OC(=O)CSc1nnc(CNc2ccc(Cl)cc2)n1Cc1ccccc1
cell number change: -37.3% | AC50 [1]: 29.1 µM [falling, partial curve, poor fit] | AC50 [2]: 32.6 µM [falling, partial curve]

CCOC(=O)c1c(NC(=O)Cn2nnc(-c3ccc(Cl)cc3)n2)sc(C)c1C
cell number change: -13.1% | AC50 [2]: 6.51 µM [rising, single point]

Cc1cccc(NC(=O)/C=C/c2ccc3c(c2)OCO3)n1
cell number change: 9.54% | AC50 [2]: 0.411 µM [rising, full curve]

Cc1ccc(-c2noc(CN3C(C)CCCC3C)n2)cc1 (configuration not stated)
cell number change: -31.6% | AC50 [2]: 29.1 µM [falling, single point]

COc1ccc(CCc2nnc(CCC(=O)N(C)Cc3ccnc4ccccc34)o2)cc1
cell number change: -24.2% | AC50 [2]: 20.6 µM [falling, single point]

O=c1[nH]cccc1-c1nc2ccccc2n1Cc1ccccc1F
cell number change: 12.1% | AC50 [1]: 4.11 µM [rising, single point] | AC50 [2]: 6.51 µM [rising, partial curve, poor fit]

CCC(=O)NC(c1cc(Cl)c2cccnc2c1O)C1CC1 (configuration not stated)
cell number change: 3.62% and 25.2% | AC50 [2]: 13 µM [rising, partial curve]

O=C(O)CCc1nc(-c2ccccc2)no1
cell number change: -2.56% | AC50 [2]: 6.51 µM [rising, single point]

CC1=CN2C(=N)/C(=C/c3ccc([N+](=O)[O-])o3)C(=O)N=C2S1
AC50 [2]: 13 µM [falling, partial curve]

S=C1NC[C@H](CC2CCCCC2)N1CC1CCCCC1
cell number change: -30.9% | AC50 [1]: 1.46 µM [falling, partial curve] | AC50 [2]: 2.91 µM [falling, partial curve]

CC(C)(C)c1cccc(OCCCSc2ncccn2)c1
cell number change: -14.3% | AC50 [2]: 0.82 µM [rising, single point]

COc1cccc(NC(=S)N2CCc3cc(OC)c(OC)cc3C2)c1
cell number change: -13% | AC50 [2]: 20.6 µM [falling, single point]

CCN(CCC(=O)Nc1cc(OC)cc(OC)c1)Cc1ccccc1
cell number change: 0.711%

CN(CC(=O)Nc1ccc(Cl)c(C(F)(F)F)c1)Cc1cc(=O)n2ccsc2n1
cell number change: 57% | AC50 [1]: 9.2 µM [rising, partial curve, poor fit] | AC50 [2]: 4.11 µM [rising, full curve]

COc1ccc(C(C(=O)NC(C)(C)C)N(CCC(C)C)C(=O)CCC(=O)Nc2cc(C)on2)cc1 (configuration not stated)
cell number change: -22.4%

CCOc1ccc(N2C(=O)CC(NCc3ccc(F)cc3)C2=O)cc1 (configuration not stated)
cell number change: 31.6% | AC50 [1]: 5.17 µM [rising, single point]

c1ccc2c(c1)nc1n2CCS1
cell number change: -11.3%

Cc1cc(C)nc(NS(=O)(=O)c2ccc(NS(=O)(=O)c3ccccc3)cc2)n1
cell number change: 12.5% | AC50 [2]: 29.1 µM [falling, single point]
